Experimental data from patent publication US9636379B2, “Compositions and methods for treating pruritus” (Washington University, priority 2007, dated 2017).
For at least one compound, name, drawing or mass did not settle the structure.

System: NMBR/GRPR
Type: in vivo
Settings: NMBR/GRPR double knockout mice; GRP (1 nM), Bombesin (0.05 nM), NMB (2 nM)
Procedure: FIG. 44 depicts the itch behavior of NMBR/GRPR double knockout mice in response to 3 different bombesin-like peptides. […] GKO, GRPR mutant mice; DKO, NMBR/GRPR double KO mice.
(A), (C), (E), (G) and (I) are time course curve, while (B), (D), (F), (H) and (J) represent the total value comparisons from the same experiment. *p<0.05, **p<0.01; One-way ANOVA followed by Newman-Keuls post hoc test was used in all statistical analysis.
Histamine was injected i.d. in 50 μl at 20 μg/mouse. Compound 48/80 was injected i.d. in 50 μl at 20 μg/mouse. ET-1 was injected i.d. in 50 μl at 1 ng/mouse. […] Serotonin (5-HT) was injected i.d. in 50 μl at 1 1 nmol/μl.

## CSCC[C@H](NC(=O)[C@H](CC(C)C)NC(=O)[C@H](Cc1cnc[nH]1)NC(=O)CNC(=O)[C@@H](NC(=O)[C@H](C)NC(=O)[C@H](Cc1c[nH]c2ccccc12)NC(=O)[C@H](CCC(N)=O)NC(=O)[C@H](CC(N)=O)NC(=O)CNC(=O)[C@H](CC(C)C)NC(=O)[C@H](CCCN=C(N)N)NC(=O)[C@H](CCC(N)=O)NC(=O)[C@@H]1CCC(=O)N1)C(C)C)C(N)=O [Bombesin]
  response to intrathecal bombesin-like peptides: deficits
